# Earlier results, collected in patent publication US11400105B2, “Anti-inflammatory properties of marine lipid compositions” (AKER BIOMARINE ANTARCTIC AS, priority 2006, dated 2022).
# Some entries share one result that the patent states for a list of compounds.
# System: adult humans
# Settings: delivered in different forms; according to previous work
row,SMILES,bioavailability
1,"CC/C=C\C/C=C\C/C=C\C/C=C\C/C=C\C/C=C\CCC(=O)O [DHA, 4,7,10,13,16,19-docosahexanoic acid]",over 90%
2,"CCC=CCC=CCC=CCC=CCC=CCCCC(=O)O [EPA, 5,8,11,14,17-eicosapentaenoic acid]",over 90%
